Several values for one entry are separate records, joined by “and”; a condition that tells them apart may be missing. Equal values may be shown once. In all, about 300,000 compounds went through this assay and about 3,700 (1.2%) were called active. The shares of active, inactive and inconclusive entries below differ from those in the screen. Calls come from the whole dose curve; tested in HEK293 cells. Potencies beside an inconclusive call are fits to weak or partial responses and may not hold up.
Assay: qHTS for Inhibitors of binding or entry into cells for Lassa Virus; note: nearly all actives have a fitted effect of over 50% in size
Settings: Lassa virus pseudotype entry inhibition, cell reporter; activity change, negative = inhibition: at 37.9 µM (top of the series) unless noted
% is set by controls: 0 for no effect and ±100 for the full control effect; potency is the fitted concentration of half-maximal effect.

SMILES | Potency | activity change, negative = inhibition
O=c1c2ccccc2n(Cc2ccc(F)cc2)c(=O)n1C1CCCC1 | inconclusive: 35.5 µM [inhibitor, single point] | –
COC(=O)c1cc(NC(=O)c2cc(-c3ccc(Cl)cc3)oc2C(F)(F)F)ccc1N1CCOCC1 | inconclusive: 35.5 µM [inhibitor, single point] | –
CCCC(=O)c1c(C)c2ccccc2n1C | inconclusive: 1.16 µM [inhibitor, single point] | –
Cc1nnc(NC(=O)c2nc(S(=O)(=O)Cc3ccccc3)ncc2Cl)s1 | inconclusive: 28.2 µM [inhibitor, single point] and inconclusive: 15.8 µM [inhibitor, single point] | –
Cc1nc(Nc2ccccc2)sc1C(=O)c1ccccc1 | inconclusive: 1 µM [inhibitor, full curve, poor fit] | –
O=C(Cn1nc(Br)nc1Br)c1ccccc1 | inconclusive: 35.5 µM [activator, single point] | –
Cc1cccc(CC2CC(=O)N(c3ccccc3)C2=O)c1 (stereo unspecified) | inconclusive: 3.55 µM [activator, full curve, poor fit] | –
CCc1ccccc1NC(=O)c1cc(S(=O)(=O)NCCc2ccc(OC)c(OC)c2)ccc1F | inconclusive: 22.4 µM [inhibitor, single point] | –
Cc1ccc(S(=O)(=O)c2cc3c(=O)n4cccc(C)c4nc3n(C3CCCCC3)c2=N)cc1 | – | inactive: 0.737% [at 46.1 µM]
CCOC(=O)c1ccccc1Nc1cn(C(C)=O)c2ccccc12 | inconclusive: 7.08 µM [inhibitor, partial curve] | –
COc1ccc(/C=C2\NC(=S)N(CC3CCCO3)C2=O)c(OC)c1C (stereo unspecified) | – | inactive: -9.46%
Cc1ccc(NC(=O)CN2CCN(c3ccccn3)CC2)cc1S(=O)(=O)N(C)C | inconclusive: 10 µM [inhibitor, partial curve] | –
Cc1ccc(C(=O)Nc2c3c(nn2C(C)(C)C)CS(=O)(=O)C3)cc1C | inconclusive: 0.82 µM [inhibitor, full curve, poor fit] | –
CCOC(=O)c1c(C)n(Cc2ccccc2)c2ccc(OCC(O)CN3C(=O)CNC3=O)cc12 (stereo unspecified) | – | inactive: -19.8%
CCOC(=O)C1CCCN(c2ncnc3c2cnn3-c2ccc(C)c(Cl)c2)C1 (stereo unspecified) | inconclusive: 22.4 µM [activator, partial curve, poor fit] | –
O=C(N/N=C/c1ccco1)c1ccc(Br)o1 | – | inactive: 21.9%
COc1ccc(C(=O)NCC(c2ccco2)N2CCc3ccccc32)cc1 (stereo unspecified) | inconclusive: 6.31 µM [inhibitor, partial curve, poor fit] | –
CC(=O)N1CCN=C1SCc1cccc(C(F)(F)F)c1 | – | inconclusive: 9.23% [activator]
CC1=C(C(=O)Nc2ccc(Cl)cc2)C(C(C)C)n2nc(SCc3cccc(C)c3)nc2N1 (stereo unspecified) | – | inactive: 3.77% [at 46.1 µM]
O=C(Nc1ccccc1N1CCCCC1)c1cccc([N+](=O)[O-])c1 | inconclusive: 35.5 µM [inhibitor, single point] | –
COC(=O)c1sccc1NC(=O)CN1CCN(c2ccc(F)cc2)CC1 | inconclusive: 12.6 µM [inhibitor, single point] | –

Given as tab-separated lines: part of the list above.
SMILES	Potency	activity change, negative = inhibition
O=c1c2ccccc2n(Cc2ccc(F)cc2)c(=O)n1C1CCCC1	inconclusive: 35.5 µM [inhibitor, single point]	–
CCCC(=O)c1c(C)c2ccccc2n1C	inconclusive: 1.16 µM [inhibitor, single point]	–
Cc1nc(Nc2ccccc2)sc1C(=O)c1ccccc1	inconclusive: 1 µM [inhibitor, full curve, poor fit]	–
O=C(Cn1nc(Br)nc1Br)c1ccccc1	inconclusive: 35.5 µM [activator, single point]	–
Cc1cccc(CC2CC(=O)N(c3ccccc3)C2=O)c1 (stereo unspecified)	inconclusive: 3.55 µM [activator, full curve, poor fit]	–
Cc1ccc(S(=O)(=O)c2cc3c(=O)n4cccc(C)c4nc3n(C3CCCCC3)c2=N)cc1	–	inactive: 0.737% [at 46.1 µM]
Cc1ccc(NC(=O)CN2CCN(c3ccccn3)CC2)cc1S(=O)(=O)N(C)C	inconclusive: 10 µM [inhibitor, partial curve]	–
CC(=O)N1CCN=C1SCc1cccc(C(F)(F)F)c1	–	inconclusive: 9.23% [activator]
CC1=C(C(=O)Nc2ccc(Cl)cc2)C(C(C)C)n2nc(SCc3cccc(C)c3)nc2N1 (stereo unspecified)	–	inactive: 3.77% [at 46.1 µM]
COC(=O)c1sccc1NC(=O)CN1CCN(c2ccc(F)cc2)CC1	inconclusive: 12.6 µM [inhibitor, single point]	–

Continuation.

SMILES | Potency | activity change, negative = inhibition
CC(C)Oc1ccc(C(CC(=O)NCCCN(C)C)c2ccc(F)cc2)cc1 (stereo unspecified) | inconclusive: 10 µM [inhibitor, partial curve, poor fit] | –
CN1CCN(C(=O)c2cc3nc(-c4ccccc4)cc(-c4ccccc4)n3n2)CC1 | – | inactive: 13.9%
O=C(O)c1ccc2c(c1)C(=O)/C(=C/c1ccccc1)C2=O | inconclusive: 35.5 µM [activator, partial curve, poor fit] | –
Cc1ccc2nc(-c3ccccn3)c(Nc3ccc(F)cc3)n2c1 | inconclusive: 35.5 µM [inhibitor, single point] | –
CCC(C)NC(=O)c1ccc2c(c1)N(Cc1ccccc1)C(=O)c1ccccc1S2(=O)=O (stereo unspecified) | inconclusive: 6.31 µM [inhibitor, partial curve] | –
CN1CCN(CCCNC(=O)c2cnn(-c3ccccc3)c2C2CCN(C(=O)OC(C)(C)C)CC2)CC1 | inconclusive: 7.08 µM [activator, partial curve, poor fit] | –
O=C(/C=C/c1ccco1)Nc1ccc2nn(-c3ccccc3)nc2c1 | – | inactive: 18.1%
COc1ccc2c(c1)c(CCN1CCOCC1)c(C)n2C(=O)c1cccc(Cl)c1Cl | active: 23.1 µM | –
Cc1cc(C(=O)N2CC=C(c3ccccc3)CC2)c2ccccc2n1 | inconclusive: 0.282 µM [inhibitor, full curve, poor fit] | –
COc1ccc(-c2noc(C3CC(=O)N(c4cc(C)cc(C)c4)C3)n2)cc1 (stereo unspecified) | – | inactive: 3.38% [at 46.1 µM]
Cc1nn(C)c(C)c1NC(=O)CCl | active: 11.2 µM | –
CC(=O)c1cccc(N(C(=O)CNC(=O)c2ccco2)C(C(=O)NC2CCCC2)c2ccco2)c1 (stereo unspecified) | inconclusive: 6.31 µM [inhibitor, partial curve, poor fit] | –
COc1ccc(N2CCN(C(c3cc4cc(C)ccc4[nH]c3=O)c3nnnn3Cc3ccccc3)CC2)cc1 (stereo unspecified) | inconclusive: 13 µM [inhibitor, partial curve, poor fit] | –
Cc1ccc(CCNC(=O)C2CCCN(Cc3nc(-c4cccc(Cl)c4)oc3C)C2)cc1 (stereo unspecified) | inconclusive: 4.47 µM [activator, partial curve, poor fit] | –
CCOC(=O)C1CCN(C(=O)COC(=O)c2nc3nc(C)cc(C)n3n2)CC1 | – | inactive: 18.3%
CN(CC(=O)NC1CC1)S(=O)(=O)c1cc(Cl)ccc1Cl | – | inactive: 26.9% [at 46.1 µM]
Cc1ccc2[nH]c3nc(N/N=C/c4cccc(O)c4)nnc3c2c1 | inconclusive: 0.0398 µM [inhibitor, partial curve, poor fit] | –
Cc1ccc(NC(=O)c2cnccn2)cc1S(=O)(=O)N(C)C | inconclusive: 2.31 µM [activator, partial curve, poor fit] | –
CC(C)(C)c1ccc(OCC(=O)NCC(c2cccs2)N2CCOCC2)cc1 (stereo unspecified) | inconclusive: 11.2 µM [inhibitor, single point] | –
COc1ccccc1NC(=O)Nc1ccc(N2CCOCC2)cc1 | inconclusive: 10 µM [inhibitor, partial curve, poor fit] | –
